The values below come from publication PMC11704194.

These are yes or no findings as the source states them, for the method shown. Binding seen in cells or lysates may run through a third protein. These calls come from enrichment with a bait or labelling near it, and not all partners need be listed.

The target of the test is T1, ANO1 (human) (UniProt Q5XXA6).
T1 sequence: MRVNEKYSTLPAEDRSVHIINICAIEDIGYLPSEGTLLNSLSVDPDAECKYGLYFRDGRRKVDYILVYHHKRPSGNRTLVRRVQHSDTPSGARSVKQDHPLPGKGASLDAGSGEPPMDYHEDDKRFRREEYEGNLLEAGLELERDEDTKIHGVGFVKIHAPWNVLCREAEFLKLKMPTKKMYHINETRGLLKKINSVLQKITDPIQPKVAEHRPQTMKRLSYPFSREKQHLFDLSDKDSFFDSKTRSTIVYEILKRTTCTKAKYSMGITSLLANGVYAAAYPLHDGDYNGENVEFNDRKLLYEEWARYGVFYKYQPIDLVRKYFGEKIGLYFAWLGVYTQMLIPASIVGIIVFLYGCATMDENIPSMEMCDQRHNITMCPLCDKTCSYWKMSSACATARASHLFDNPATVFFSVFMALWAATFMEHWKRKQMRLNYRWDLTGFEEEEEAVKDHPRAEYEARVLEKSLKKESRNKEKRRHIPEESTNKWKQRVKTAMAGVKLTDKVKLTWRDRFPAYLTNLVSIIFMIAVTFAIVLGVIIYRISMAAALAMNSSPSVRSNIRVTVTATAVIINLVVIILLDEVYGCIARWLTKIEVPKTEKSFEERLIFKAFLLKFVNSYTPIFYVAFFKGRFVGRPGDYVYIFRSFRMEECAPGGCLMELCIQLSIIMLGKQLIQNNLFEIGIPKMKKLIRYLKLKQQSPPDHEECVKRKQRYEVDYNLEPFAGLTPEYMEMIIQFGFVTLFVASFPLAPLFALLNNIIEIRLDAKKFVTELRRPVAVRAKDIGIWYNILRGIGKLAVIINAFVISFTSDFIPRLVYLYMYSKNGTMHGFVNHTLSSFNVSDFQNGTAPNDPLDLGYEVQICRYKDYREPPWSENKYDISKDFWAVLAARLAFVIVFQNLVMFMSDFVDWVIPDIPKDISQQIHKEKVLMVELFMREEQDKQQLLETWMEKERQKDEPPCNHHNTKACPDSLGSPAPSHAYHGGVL
The test can be described thus: affinity purification with mass spectrometry; IP-MS: 2 mg lysate of SNU-478-ANO1-OE and SNU-478-vector cells in 0.5% NETN buffer (0.5% Nonidet P-40, 50 mM Tris-HCl pH 7.4, 150 mM NaCl, 1 mM EDTA); anti-ANO1/TMEM16A polyclonal antibody overnight at 4 °C, Protein A magnetic beads, on-bead tryptic digestion, MS.

B1: PRKCI (protein, UniProt P41743 1-596)
chain: MPTQRDSSTMSHTVAGGGSGDHSHQVRVKAYYRGDIMITHFEPSISFEGLCNEVRDMCSFDNEQLFTMKWIDEEGDPCTVSSQLELEEAFRLYELNKDSELLIHVFPCVPERPGMPCPGEDKSIYRRGARRWRKLYCANGHTFQAKRFNRRAHCAICTDRIWGLGRQGYKCINCKLLVHKKCHKLVTIECGRHSLPQEPVMPMDQSSMHSDHAQTVIPYNPSSHESLDQVGEEKEAMNTRESGKASSSLGLQDFDLLRVIGRGSYAKVLLVRLKKTDRIYAMKVVKKELVNDDEDIDWVQTEKHVFEQASNHPFLVGLHSCFQTESRLFFVIEYVNGGDLMFHMQRQRKLPEEHARFYSAEISLALNYLHERGIIYRDLKLDNVLLDSEGHIKLTDYGMCKEGLRPGDTTSTFCGTPNYIAPEILRGEDYGFSVDWWALGVLMFEMMAGRSPFDIVGSSDNPDQNTEDYLFQVILEKQIRIPRSLSVKAASVLKSFLNKDPKERLGCHPQTGFADIQGHPFFRNVDWDMMEQKQVVPPFKPNISGEFGLDNFDSQFTNEPVQLTPDDDDIVRKIDQSEFEGFEYINPLLMSAEECV
As to B1, the binding result is recorded as “binds”.
